From US20210180095A1 (SHELL OIL COMPANY, priority 2017, published 2021)

Experiment: Effect of pH, temperature and oxygen on HmfF decarboxylation activity (UV-vis)

B1: P. thermopropionicum HmfF: HmfF enzyme (2,5-furandicarboxylic acid decarboxylase) of SEQ ID NO:1 from the thermophilic bacterium Pelotomaculum thermopropionicum (protein, listed as Pelotomaculum thermopropionicum)
chain: MSHSLREWLAFLEGKGKLKRVRKEVDPVFEIAALGKQADGICSLLFERVKGYAVPVVTGLAGDRELFAAAMSVPVEGMLEKLAAAVENPVPCRLVSPDGAPVKECIIRENIDLLKMLPIPTHHAGDAGPYITAAILIARDPDSGVRNVSIHRLQVTGPDRLGILILPRHLWHFFGKAERAGRPLEIALAIGVHPAVLLASQATTRLGVDELEIASALLPQPLELVKCETVDVEVPAGAEIVIEGKILPGVREVEGPFGEYPRYYGPAAPRPVVEVTAVTHRRQPVYHTIIPASREHLLLGGIAREAVLLQTVRQAVPTVKNVHLTPGGSCRYHAVISIEKKHEGEAKNAIFAAFTSSSEVKHVVVVDHEINIFDPEEVEWAVATRCQAGRDVFIVKDAMGNRLDPSSRDGVSDKMGIDATIPLNLPGERFERISIPGLDKIKLADYLE
FDCA decarboxylation
  temperature at and above which rates decrease rapidly (enzyme inactivated): ≥ 55 °C
Aerobic conditions
  HmfF activity under aerobic conditions: rapidly decrease
